Assay results published in PMC3368879.
No constants are given. Whether binding was seen depends on the method and setting. Binding seen in cells or lysates may run through a third protein. Some entries that bind do so weakly or less than the wild type. For some assays here: Sequences can lack the tags named with a protein.

Amino acid sequences for entries named in this document (tags omitted).
UniProt Q8TAF3: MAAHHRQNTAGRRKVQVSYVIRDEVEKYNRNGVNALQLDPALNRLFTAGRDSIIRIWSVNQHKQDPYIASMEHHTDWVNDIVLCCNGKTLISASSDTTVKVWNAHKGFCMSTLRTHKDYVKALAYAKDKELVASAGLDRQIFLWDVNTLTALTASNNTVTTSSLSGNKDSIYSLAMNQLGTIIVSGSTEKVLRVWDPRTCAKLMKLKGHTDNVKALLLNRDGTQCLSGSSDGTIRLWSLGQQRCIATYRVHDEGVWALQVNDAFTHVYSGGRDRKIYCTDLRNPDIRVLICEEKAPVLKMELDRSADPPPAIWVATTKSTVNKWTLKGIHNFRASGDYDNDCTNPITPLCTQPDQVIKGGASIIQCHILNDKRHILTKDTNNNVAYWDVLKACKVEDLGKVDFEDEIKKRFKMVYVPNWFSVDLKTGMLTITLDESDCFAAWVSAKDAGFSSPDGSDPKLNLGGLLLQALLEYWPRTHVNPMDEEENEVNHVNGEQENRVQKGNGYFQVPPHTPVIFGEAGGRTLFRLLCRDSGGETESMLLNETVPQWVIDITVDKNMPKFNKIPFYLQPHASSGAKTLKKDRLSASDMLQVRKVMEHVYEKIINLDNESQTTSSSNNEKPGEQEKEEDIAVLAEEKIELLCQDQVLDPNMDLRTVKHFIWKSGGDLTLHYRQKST

Assays:
[1] = molecular target: T1, GFP-USP1 (full-length human ubiquitin-specific protease 1, wild type) (human) (UniProt O94782); assay: co-IP; anti-GFP immunoprecipitation with GFP-Trap_M from co-transfected 293T cells; immunoblot with anti-GFP and anti-Xpress
T1 sequence: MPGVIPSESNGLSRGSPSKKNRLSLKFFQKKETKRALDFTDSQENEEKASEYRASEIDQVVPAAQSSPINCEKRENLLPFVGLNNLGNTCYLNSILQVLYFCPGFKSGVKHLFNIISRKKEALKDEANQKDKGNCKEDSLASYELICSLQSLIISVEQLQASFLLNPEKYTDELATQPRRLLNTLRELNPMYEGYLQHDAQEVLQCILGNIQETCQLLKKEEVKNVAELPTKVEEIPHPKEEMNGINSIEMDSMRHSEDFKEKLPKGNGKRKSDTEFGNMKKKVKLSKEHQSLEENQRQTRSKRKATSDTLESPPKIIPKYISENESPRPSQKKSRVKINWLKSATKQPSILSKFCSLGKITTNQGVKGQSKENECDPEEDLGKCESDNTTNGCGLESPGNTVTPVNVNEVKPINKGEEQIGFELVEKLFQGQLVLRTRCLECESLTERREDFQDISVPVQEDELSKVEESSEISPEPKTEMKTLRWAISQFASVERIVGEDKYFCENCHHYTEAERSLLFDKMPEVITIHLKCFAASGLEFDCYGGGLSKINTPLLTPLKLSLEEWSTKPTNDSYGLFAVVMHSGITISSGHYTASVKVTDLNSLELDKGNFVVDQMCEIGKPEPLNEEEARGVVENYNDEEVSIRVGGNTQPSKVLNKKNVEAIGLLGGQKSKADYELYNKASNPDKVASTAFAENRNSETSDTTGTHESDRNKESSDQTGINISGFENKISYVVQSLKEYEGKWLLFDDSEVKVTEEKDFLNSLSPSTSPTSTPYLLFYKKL

[2] = molecular target: T2, USP1 Del(420–520) (human) (UniProt O94782); assay: as above
T2 sequence: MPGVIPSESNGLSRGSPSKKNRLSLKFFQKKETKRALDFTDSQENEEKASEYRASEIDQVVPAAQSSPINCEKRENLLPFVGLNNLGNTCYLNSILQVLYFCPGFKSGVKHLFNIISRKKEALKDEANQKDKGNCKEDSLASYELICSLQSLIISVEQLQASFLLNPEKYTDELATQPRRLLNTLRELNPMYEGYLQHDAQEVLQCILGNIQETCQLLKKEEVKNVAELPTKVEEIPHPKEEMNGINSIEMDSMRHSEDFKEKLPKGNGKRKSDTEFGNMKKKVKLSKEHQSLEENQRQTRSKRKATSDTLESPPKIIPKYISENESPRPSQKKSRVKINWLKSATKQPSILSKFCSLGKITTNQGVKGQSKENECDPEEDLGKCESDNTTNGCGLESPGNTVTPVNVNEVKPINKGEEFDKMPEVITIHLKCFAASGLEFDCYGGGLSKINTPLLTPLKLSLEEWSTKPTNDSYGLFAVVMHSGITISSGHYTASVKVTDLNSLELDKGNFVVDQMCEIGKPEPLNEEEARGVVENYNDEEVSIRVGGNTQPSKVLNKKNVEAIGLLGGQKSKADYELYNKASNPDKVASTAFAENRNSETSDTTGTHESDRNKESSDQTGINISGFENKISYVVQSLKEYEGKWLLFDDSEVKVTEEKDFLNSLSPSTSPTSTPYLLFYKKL

Substance: Xpress-UAF1 (USP1-associated factor 1) (from UniProt Q8TAF3 1-677)
- binding [1]: binds
- binding [2]: no binding
